Conjugation yield data for two substances are collected here from patent publication US20030119719A1 (priority 1996, published 2003).

The data set is described as follows: peptide synthesis. To be noted: conjugation step.

In turn, “N-[N′,N′,N′″,N′″-Tetrakis (hydroxy-carboxy-methyl)-N″-(carboxy-methyl)-diethylin-triamino]-Gly-Phe-(D-Trp)-Leu-Asp-Ile-Ile-Trp-OH” had a conjugation yield of 11.3%.
Then “N-[N′,N′,N′″,N′″-Tetrakis (hydroxy-carboxy-methyl)-N″-(carboxy-methyl)-diethylin-triamino]-[(8-amino-1-oxo-octyl)-Phe-(D-Trp)-Leu-Asp-Ile-Ile-Trp-OH]”, with 17.9%.
